From the supplement of paper PMC3334620
The full ranking holds about 33,000 sequences; the median of “E-score (-0.5 to 0.5)” is about -0.0059, and the highest 2% start at about 0.26. The list shows a part of the results.

Target: T1, Cin5 (UniProt P40917)
T1 sequence: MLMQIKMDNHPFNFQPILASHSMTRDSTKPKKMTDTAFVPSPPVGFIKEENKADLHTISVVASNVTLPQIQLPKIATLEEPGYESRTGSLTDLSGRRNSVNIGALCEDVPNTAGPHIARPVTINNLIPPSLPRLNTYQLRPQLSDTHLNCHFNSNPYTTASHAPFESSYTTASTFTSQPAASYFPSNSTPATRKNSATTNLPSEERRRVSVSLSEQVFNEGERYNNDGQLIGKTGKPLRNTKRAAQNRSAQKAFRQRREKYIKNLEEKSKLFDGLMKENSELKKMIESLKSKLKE
Assay: PBM E-score (8-mer binding enrichment) (E-score (-0.5 to 0.5)); higher = stronger / more preferred TF binding
Conditions: protein concentration: 100 nM; construct: GST-full length
Outline: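 Yeast transcription factors, full-length or as DNA-binding domains, were expressed with a GST tag using PURExpress in vitro transcription/translation. At about 100-200 nM they were applied to universal all-10-mer Agilent arrays, double-stranded by primer extension on fresh or once-stripped slides. Fluorescent anti-GST detected bound protein, and masliner normalised the scans. E-scores for ungapped eight-base words, pooled with reverse complements, came from the Universal PBM Analysis Suite.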

Sequence	PBM E-score
AGTCTCTA	-0.142
CGAAGAAC	0.0305
GTGCGAGA	-0.0361
CGGTCGAG	-0.171
CTCTCTCC	-0.245
TGATGAAA	0.0478
GCAGGAAA	-0.027
CTCATTAA	0.175
TCATTGGA	0.0163
CCCTATGA	-0.066
CCATTGCG	0.0221
ATAAGCAA	0.349
TGAGTACA	0.149
AAGGCACT	-0.104
TGAGACAA	0.0273
CCTTGAAA	-0.0534
GAACCATA	0.0184
ATGCGGTG	-0.224
AGTCTATG	-0.109
TATGACGA	0.0753
CTGCGGTC	-0.176
ATCAAGCA	0.114
CCAGTATA	0.048
ATCCATAG	-0.0732
CCTTAAAA	-0.0716

Sequence	PBM E-score
GAAAGCCC	0.0262
ATGAAGAA	0.115
GCTCATAC	-0.138
ATACTGGC	-0.0781
GAATTCTC	0.0994
AGAGCCCA	-0.081
GATCCACC	-0.0681
AACGTGGT	-0.0487
GGCTGGTA	-0.123
AGTTGTGC	0.0863
CCATCGGG	-0.049
AGGTGCAG	-0.118
CCGATTCC	0.0486
AGAGCCGG	-0.295
CGGTTCGA	0.003
TAAGGAAA	0.0547
ATTGTTAC	0.276
AGCTTATG	0.296
CAGTAGAG	-0.0798
CTGGCAAG	-0.0803
ATTATCTC	0.306
AAAAGACG	0.0596
ACAAGTTA	0.102
ACGTCTGC	-0.0531
GAGTCGGA	-0.08

Sequence	PBM E-score
GGTGCAAC	-0.113
AGGACGCG	-0.156
CACGACCG	-0.263
AGCTCGCG	0.0892
ACGCCGAG	-0.117
ACAGCAGT	0.0218
CGAAGCGA	-0.0929
AAACTCAA	0.201
ATGTTTCC	0.143
AGAGGGAC	-0.234
CGTGGGTC	-0.133
GCCAGAGC	-0.331
CCCGCCAA	-0.0185
AGCCCAAA	0.215
GGCGCAAA	0.142
CGGGCGGC	-0.1
CAATCTCC	0.0225
AACCCGAC	0.0291
AAGTGACT	-0.137
CCTGGTGA	-0.0922
ACGAATTA	0.0396
AGACGGAA	-0.00624
TCCCTAAA	0.0224
GAGTATAA	0.181
AAAGTGAA	0.258

Sequence	PBM E-score
CTACTCAC	0.0863
ATTCGGGC	-0.108
ACTCCACA	0.126
AACGGTTG	0.119
CTAGATTC	-0.0567
ATCGAACA	0.0675
CTAACTCA	-0.123
ACATTTTA	0.251
GCGTTCGA	0.0843
CGGATGGC	-0.00132
GCGCGGAC	-0.0321
GTAATTTA	0.27
ACCTGAAT	0.163
CCCTGGTC	-0.309
CCCAATGC	-0.162
ACCAAAGG	-0.114
CGTTTTAA	0.00349
AATTCCCA	0.0496
GTTAGAGA	-0.143
CTCTACTC	-0.0607
AAACTAGA	-0.116
AGAACTTA	0.0465
ACCTAGGG	-0.151
CTTTCGAA	-0.177
ATAGGTAC	0.0417

Sequence	PBM E-score
AGACCATG	-0.159
AGTCATAG	0.066
TGAACACA	0.0378
GATGGCTA	0.0218
TAAGAGAA	-0.0351
CGAACAAC	0.103
ATAATACA	0.35
CGTCAGCC	0.121
GATGAACC	-0.0498
ATAGTCCG	-0.063
GATGGGCC	-0.229
AACTGGGG	0.126
CAGCCAAG	-0.00072
ATGTAACG	0.107
AAAGACAC	-0.0134
ATACTACC	-0.0132
CCCTTTCG	-0.219
AACTTCAC	0.0461
AGGCTAGC	-0.163
AGTTCTAG	-0.0375
AAAGTCAC	-0.0129
CCACATAG	-0.0996
TCACTACA	0.185
CCCCCTAA	-0.368
AAAAAGCA	0.0522

Sequence	PBM E-score
GAGTTCAC	-0.015
TACCAATA	0.176
AAAGGATG	0.0722
ACCGTGCT	-0.203
GGACCGCC	-0.269
TCGGATCA	0.0229
CTCCTGAC	-0.00526
CGCTCGAC	-0.205
CAGGTATG	0.0898
AGTATTGG	-0.0176
CTTAGCGC	0.236
CAGTAAGG	-0.0464
AAACGAAT	0.0912
AGAACGAC	0.00763
AGCGTCTG	-0.244
ACCCTTAG	-0.101
ATCGTTCC	-0.121
TATTCAGA	0.126
AAACGTAA	0.234
ATATCACA	0.109
AGATGGTA	0.137
CAAGGGAC	-0.266
CACGGGTA	-0.0916
CTGCTAAA	-0.0894
GCGGGACA	0.0261

Reformatted with bars between the fields: entries from further up.
Sequence | PBM E-score
GATGAACC | -0.0498
ATAGTCCG | -0.063
GATGGGCC | -0.229
AACTGGGG | 0.126
CAGCCAAG | -0.00072
ATGTAACG | 0.107
AAAGACAC | -0.0134
ATACTACC | -0.0132
CCCTTTCG | -0.219
AACTTCAC | 0.0461
AGGCTAGC | -0.163
AGTTCTAG | -0.0375
AAAGTCAC | -0.0129
CCACATAG | -0.0996
TCACTACA | 0.185
CCCCCTAA | -0.368
AAAAAGCA | 0.0522
GAGTTCAC | -0.015
TACCAATA | 0.176
AAAGGATG | 0.0722
ACCGTGCT | -0.203
GGACCGCC | -0.269
TCGGATCA | 0.0229
CTCCTGAC | -0.00526
CGCTCGAC | -0.205
CAGGTATG | 0.0898
AGTATTGG | -0.0176
CTTAGCGC | 0.236
CAGTAAGG | -0.0464
AAACGAAT | 0.0912
AGAACGAC | 0.00763
AGCGTCTG | -0.244
ACCCTTAG | -0.101
ATCGTTCC | -0.121
TATTCAGA | 0.126
AAACGTAA | 0.234
ATATCACA | 0.109
AGATGGTA | 0.137
CAAGGGAC | -0.266
CACGGGTA | -0.0916

(next part)

Sequence	PBM E-score
AGTTACAT	0.139
CGTGGCGC	-0.163
TAGATTCA	-0.16
CCCGGACA	-0.0103
TAACGTAA	0.415
ATCCAGCC	-0.0528
CTTATGTA	0.361
ACACGCGA	0.0888
CGGACAGA	0.0292
CAACTAGC	0.216
GTGCGTCA	-0.0416
CTTTTAAC	0.0121
GTGCCGTA	0.0613
GGTACGCA	0.00265
ACGCCTAG	-0.186
AAACGGTT	-0.121
CGGGTCAC	-0.106
CGTATCAG	0.0873
AGAATCGA	0.108
CACGAGAC	-0.11
CCGAACTA	0.128
ATTCAGAG	0.0844
